# Source: the supplement of paper PMC8728848
# The other results are listed elsewhere or left out.
# B1: TAL6-6LysM (Trichoderma atroviride) (protein)
# chain: AASKLGVPQPAQRDQVNCQLYAVQPNDNCIDISSKNNITYAQLLSWNPSLSSTCSNLASLNSSSICVSNPKGTFSISSNTVGATDIATTTAPVPSPTLDQTTSRCAKYYQVSDGDDCSHLTAQFAITLKDFIFLNSEVWQNCTNLELGYYYCVEPVGYISTYPGYLPTATTKPFNQTSATSLPYDGDPWARFSSNSSVIPIANGTRVDCYSYVYVKNLTENLFADCWNMASMYEITREELVLWNPSLGNDGSSGSNLSGAEASQVASSIAIPTTAPSSITTNLYTYPCTVAANISYCVALVSSTGALPTNTAPPGPHASGEISNCTAWFAPEAYDTCKSILDIFEMSFANFYKMNPSVGPDCSGLAVGTNYCVSTYPNGEDPNDDWDGDDSIPSISPTGIITPTPTQSGMVSNCNKFYDVHSNDGCSAIASSQHVDLSSLYKWNPAIKTDCSGLQASVYVCIGILTTSMSTTSKLPTTTSKPSTTSKPPTGITTPTPTQSGMVKNCNKFYDVHSGDGCSAIASSQKVNLSSFYLWNPAVKTDCSGLQASVFVCIGTLTTSMSTTTSKLPTTTSKPSTTSKPPTGIITPTPTQNGMVKNCNKFYDVHSGDGCSAIASSQKVNLSSFYLWNPAVKTDCSGLQASVFVCVGTATTTTAAGITTPTPTQSGMVSGCNKFYDVHAGDGCSAIASSQKIALSSLYKWNPAVKTDCSGLQASVYICIGVGNAAAARVTGAAASFLEQKLISEEDLNSAVDHHHHHH
# Key:
# Assay in all cases: glycan array binding signal (z-score within array); higher = stronger binding
# Settings in all cases: glycan notation: IUPAC condensed, linker removed
# [1] = molecular target: GlcNAc(b1-3)Gal(b1-4)GlcNAc(b1-3)Gal(b1-4)GlcNAc(b1-3)GalNAc
# In short: (§1)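 Glycan array data came from 3228 arrays in the Consortium for Functional Glycomics database, and only arrays with an available protein sequence were kept. Glycan names were put into IUPAC-condensed notation, and columns mapping to the same glycan were averaged. The binding signal is a within-array Z-score, averaged across arrays of one protein sequence run at different concentrations or buffers and across linkers. A negative Z-score can be read as non-binding.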
# [2] = molecular target: GlcNAc(b1-3)Gal(b1-4)GlcNAc(b1-3)GalNAc
# In short: as §1
# [3] = molecular target: GlcNAc(b1-3)Gal(b1-4)GlcNAc(b1-3)[GlcNAc(b1-3)Gal(b1-4)GlcNAc(b1-3)]GalNAc
# In short: as §1
# [4] = molecular target: GlcNAc(b1-3)Gal(b1-4)GlcNAc(b1-6)[Gal(b1-3)]GalNAc
# In short: as §1
# [5] = molecular target: GlcNAc(b1-3)Gal(b1-4)GlcNAc(b1-6)[GlcNAc(b1-3)Gal(b1-3)]GalNAc
# In short: as §1
# [6] = molecular target: GlcNAc(b1-3)Gal(b1-4)GlcNAc(b1-6)[GlcNAc(b1-3)]Gal(b1-4)GlcNAc
# In short: as §1
# GlcNAc(b1-3)GalNAc = molecular target: GlcNAc(b1-3)GalNAc
# In short: as §1
# GlcNAc(b1-3)Man = molecular target: GlcNAc(b1-3)Man
# In short: as §1
# [7] = molecular target: GlcNAc(b1-3)[GlcNAc(b1-4)][GlcNAc(b1-6)]GlcNAc
# In short: as §1
# [8] = molecular target: GlcNAc(b1-3)[GlcNAc(b1-6)]Gal(b1-4)GlcNAc
# In short: as §1
# [9] = molecular target: GlcNAc(b1-3)[GlcNAc(b1-6)]GalNAc
# In short: as §1
# [10] = molecular target: GlcNAc(b1-4)Gal(b1-4)GlcNAc
# In short: as §1
# GlcNAc(b1-4)GlcNAc = molecular target: GlcNAc(b1-4)GlcNAc
# In short: as §1
# [11] = molecular target: GlcNAc(b1-4)GlcNAc(b1-4)GlcNAc
# In short: as §1
# [12] = molecular target: GlcNAc(b1-4)GlcNAc(b1-4)GlcNAc(b1-4)GlcNAc(b1-4)GlcNAc
# In short: as §1
# [13] = molecular target: GlcNAc(b1-4)GlcNAc(b1-4)GlcNAc(b1-4)GlcNAc(b1-4)GlcNAc(b1-4)GlcNAc
# In short: as §1
# [14] = molecular target: GlcNAc(b1-4)[GlcNAc(b1-6)]GalNAc
# In short: as §1
# [15] = molecular target: GlcNAc(b1-6)Gal(b1-4)GlcNAc
# In short: as §1
# GlcNAc(b1-6)GalNAc = molecular target: GlcNAc(b1-6)GalNAc
# In short: as §1
# [16] = molecular target: GlcNAc6S(b1-3)Gal(b1-4)GlcNAc
# In short: as §1
# Kdn(a2-3)Gal(b1-3)GalNAc = molecular target: Kdn(a2-3)Gal(b1-3)GalNAc
# In short: as §1
# Kdn(a2-3)Gal(b1-3)GlcNAc = molecular target: Kdn(a2-3)Gal(b1-3)GlcNAc
# In short: as §1
# Kdn(a2-3)Gal(b1-4)Glc = molecular target: Kdn(a2-3)Gal(b1-4)Glc
# In short: as §1
# Kdn(a2-3)Gal(b1-4)GlcNAc = molecular target: Kdn(a2-3)Gal(b1-4)GlcNAc
# In short: as §1
# [17] = molecular target: Kdn(a2-3)Gal(b1-4)[Fuc(a1-3)]GlcNAc
# In short: as §1
# Kdn(a2-6)Gal(b1-4)GlcNAc = molecular target: Kdn(a2-6)Gal(b1-4)GlcNAc
# In short: as §1
# [18] = molecular target: Man(a1-2)Man(a1-2)Man(a1-3)Man
# In short: as §1
# [19] = molecular target: Man(a1-2)Man(a1-2)Man(a1-6)[Man(a1-3)]Man
# In short: as §1
# Man(a1-2)Man(a1-3)Man = molecular target: Man(a1-2)Man(a1-3)Man
# In short: as §1
# [20] = molecular target: Man(a1-2)Man(a1-3)[Man(a1-2)Man(a1-6)]Man
# In short: as §1
binder,measurement,setting,value
B1,glycan array binding signal (z-score),[1],-0.562
same,glycan array binding signal (z-score),[2],0.442
same,glycan array binding signal (z-score),[3],0.159
same,glycan array binding signal (z-score),[4],-0.872
same,glycan array binding signal (z-score),[5],-0.153
same,glycan array binding signal (z-score),[6],-0.351
same,glycan array binding signal (z-score),GlcNAc(b1-3)GalNAc,-0.098
same,glycan array binding signal (z-score),GlcNAc(b1-3)Man,-0.043
same,glycan array binding signal (z-score),[7],1.9
same,glycan array binding signal (z-score),[8],-0.188
same,glycan array binding signal (z-score),[9],-1.08
same,glycan array binding signal (z-score),[10],-0.967
same,glycan array binding signal (z-score),GlcNAc(b1-4)GlcNAc,-0.197
same,glycan array binding signal (z-score),[11],0.25
same,glycan array binding signal (z-score),[12],0.737
same,glycan array binding signal (z-score),[13],-0.324
same,glycan array binding signal (z-score),[14],1
same,glycan array binding signal (z-score),[15],-1.19
same,glycan array binding signal (z-score),GlcNAc(b1-6)GalNAc,1.32
same,glycan array binding signal (z-score),[16],0.253
same,glycan array binding signal (z-score),Kdn(a2-3)Gal(b1-3)GalNAc,-0.313
same,glycan array binding signal (z-score),Kdn(a2-3)Gal(b1-3)GlcNAc,-1.18
same,glycan array binding signal (z-score),Kdn(a2-3)Gal(b1-4)Glc,-0.559
same,glycan array binding signal (z-score),Kdn(a2-3)Gal(b1-4)GlcNAc,0.21
same,glycan array binding signal (z-score),[17],1.88
same,glycan array binding signal (z-score),Kdn(a2-6)Gal(b1-4)GlcNAc,2.71
same,glycan array binding signal (z-score),[18],-0.998
same,glycan array binding signal (z-score),[19],-1.13
same,glycan array binding signal (z-score),Man(a1-2)Man(a1-3)Man,-0.128
same,glycan array binding signal (z-score),[20],-0.348

# Looked up one by one from the entries so far, 2 records:
binder,measurement,setting,value
B1,glycan array binding signal (z-score),Kdn(a2-3)Gal(b1-3)GalNAc,-0.313
same,glycan array binding signal (z-score),[4],-0.872
